In the supplement of paper PMC4604168 (melanoma cell lines):
The other results are listed elsewhere or left out. Many values rest on one well or one pass, so single values are uncertain.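 Imaging used 1,536-well plates; nuclei positive for cleaved PARP by antibody were divided by total DNA-stained nuclei to yield the apoptosis fraction. Doses for screening kept most cells viable, and cell lines differ markedly in resting and induced cleaved-PARP levels.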

Each molecule was assayed on COLO829 (assay: cleaved PARP positive nuclei fraction relative to DMSO control; melanoma cells; higher = more apoptosis). Settings: library dose: low library concentration; 72 h.

Compound | cleaved PARP positive nuclei fraction [%]
Cc1cn(-c2cc(NC(=O)c3ccc(C)c(Nc4nccc(-c5cccnc5)n4)c3)cc(C(F)(F)F)c2)cn1 [nilotinib] + CN(c1ncccc1CNc1nc(Nc2ccc3c(c2)CC(=O)N3)ncc1C(F)(F)F)S(C)(=O)=O [PF562271] (first compound 0.2 µM, partner dose 0.08 µM) | 56
CC[C@]1(O)C[C@H]2CN(CCc3c([nH]c4ccccc34)[C@@](C(=O)OC)(c3cc4c(cc3OC)N(C=O)[C@H]3[C@@](O)(C(=O)OC)[C@H](OC(C)=O)[C@]5(CC)C=CCN6CC[C@]43[C@@H]65)C2)C1 [vincristine] + COCC[n+]1c2c(n(Cc3cnccn3)c1C)C(=O)c1ccccc1C2=O [YM155] (first compound 0.0001 µM, partner dose 0.0004 µM) | 163
Cc1cn(-c2cc(NC(=O)c3ccc(C)c(Nc4nccc(-c5cccnc5)n4)c3)cc(C(F)(F)F)c2)cn1 [nilotinib] + O=C(O)[C@@H]1[O][Sb](=[O])([O][Sb]2(=[O])[O][C@H]([C@H](O)CO)[C@H](O)[C@H](C(=O)O)[O]2)[O][C@H]([C@H](O)CO)[C@@H]1O [stibogluconate] (first compound 0.2 µM, partner dose 2 µM) | 48
COc1cc([C@@H]2c3cc4c(cc3[C@@H](O[C@@H]3O[C@@H]5CO[C@@H](C)O[C@H]5[C@H](O)[C@H]3O)[C@H]3COC(=O)[C@H]23)OCO4)cc(OC)c1O [etoposide] + CCCCCCCCCCCCCCCCCCOP(=O)([O-])OC1CC[N+](C)(C)CC1 [Perifosine] (first compound 0.02 µM, partner dose 0.4 µM) | 64.9
